## Screening data, single-dose tests

Chains of the proteins cited; added tags and fusions are not shown. Residues count along the entry.
UniProt I6X8D2, whole entry: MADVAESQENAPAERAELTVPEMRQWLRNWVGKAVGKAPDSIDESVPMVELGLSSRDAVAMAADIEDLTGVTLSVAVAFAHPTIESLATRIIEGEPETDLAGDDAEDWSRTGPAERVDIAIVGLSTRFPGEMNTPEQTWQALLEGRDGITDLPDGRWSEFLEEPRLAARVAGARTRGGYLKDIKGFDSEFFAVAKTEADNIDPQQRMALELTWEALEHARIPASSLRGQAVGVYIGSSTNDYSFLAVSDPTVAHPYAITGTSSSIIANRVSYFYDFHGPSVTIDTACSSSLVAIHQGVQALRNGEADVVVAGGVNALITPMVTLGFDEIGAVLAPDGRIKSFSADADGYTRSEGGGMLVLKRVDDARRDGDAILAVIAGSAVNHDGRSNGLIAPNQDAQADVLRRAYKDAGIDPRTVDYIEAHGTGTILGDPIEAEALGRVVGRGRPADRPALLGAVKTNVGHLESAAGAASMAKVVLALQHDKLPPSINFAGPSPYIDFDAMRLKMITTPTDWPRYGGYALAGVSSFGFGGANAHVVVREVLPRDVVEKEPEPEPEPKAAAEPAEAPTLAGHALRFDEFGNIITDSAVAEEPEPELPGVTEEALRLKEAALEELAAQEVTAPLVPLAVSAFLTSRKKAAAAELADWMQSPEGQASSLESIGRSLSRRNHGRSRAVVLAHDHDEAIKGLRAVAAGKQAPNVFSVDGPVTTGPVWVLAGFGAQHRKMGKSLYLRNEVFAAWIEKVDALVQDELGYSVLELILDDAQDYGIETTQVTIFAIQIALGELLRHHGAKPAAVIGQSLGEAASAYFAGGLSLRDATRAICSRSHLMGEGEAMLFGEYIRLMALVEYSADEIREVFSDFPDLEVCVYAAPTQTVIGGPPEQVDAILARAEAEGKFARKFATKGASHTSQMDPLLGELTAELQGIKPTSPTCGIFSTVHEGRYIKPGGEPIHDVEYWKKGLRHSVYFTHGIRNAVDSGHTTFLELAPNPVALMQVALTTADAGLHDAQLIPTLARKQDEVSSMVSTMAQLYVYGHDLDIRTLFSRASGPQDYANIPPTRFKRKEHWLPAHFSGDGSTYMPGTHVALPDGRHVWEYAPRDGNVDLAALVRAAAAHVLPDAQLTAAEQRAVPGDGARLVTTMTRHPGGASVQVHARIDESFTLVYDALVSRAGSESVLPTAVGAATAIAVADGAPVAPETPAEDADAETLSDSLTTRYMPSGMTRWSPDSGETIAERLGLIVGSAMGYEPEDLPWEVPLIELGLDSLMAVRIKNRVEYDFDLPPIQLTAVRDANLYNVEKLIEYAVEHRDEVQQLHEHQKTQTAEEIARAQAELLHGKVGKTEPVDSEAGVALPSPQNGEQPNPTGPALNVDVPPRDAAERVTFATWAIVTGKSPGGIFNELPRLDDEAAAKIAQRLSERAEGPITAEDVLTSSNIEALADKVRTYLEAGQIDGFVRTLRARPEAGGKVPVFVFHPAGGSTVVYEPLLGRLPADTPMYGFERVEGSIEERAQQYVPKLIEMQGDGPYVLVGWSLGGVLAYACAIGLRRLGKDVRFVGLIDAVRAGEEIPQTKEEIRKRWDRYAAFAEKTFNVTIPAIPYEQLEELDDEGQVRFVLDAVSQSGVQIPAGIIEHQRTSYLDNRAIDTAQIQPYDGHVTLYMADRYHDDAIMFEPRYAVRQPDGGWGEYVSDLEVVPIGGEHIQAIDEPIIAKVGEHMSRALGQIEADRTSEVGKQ
UniProt P9WFT3, whole entry: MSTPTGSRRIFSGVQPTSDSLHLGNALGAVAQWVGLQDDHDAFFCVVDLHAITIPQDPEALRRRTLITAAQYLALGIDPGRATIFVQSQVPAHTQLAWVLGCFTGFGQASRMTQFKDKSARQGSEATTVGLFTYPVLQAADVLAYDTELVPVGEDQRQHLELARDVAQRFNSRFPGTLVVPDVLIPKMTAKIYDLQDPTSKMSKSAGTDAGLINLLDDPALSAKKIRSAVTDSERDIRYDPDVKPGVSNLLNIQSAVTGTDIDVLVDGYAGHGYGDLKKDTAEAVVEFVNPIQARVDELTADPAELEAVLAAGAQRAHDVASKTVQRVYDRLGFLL
UniProt P9WNZ1, whole entry: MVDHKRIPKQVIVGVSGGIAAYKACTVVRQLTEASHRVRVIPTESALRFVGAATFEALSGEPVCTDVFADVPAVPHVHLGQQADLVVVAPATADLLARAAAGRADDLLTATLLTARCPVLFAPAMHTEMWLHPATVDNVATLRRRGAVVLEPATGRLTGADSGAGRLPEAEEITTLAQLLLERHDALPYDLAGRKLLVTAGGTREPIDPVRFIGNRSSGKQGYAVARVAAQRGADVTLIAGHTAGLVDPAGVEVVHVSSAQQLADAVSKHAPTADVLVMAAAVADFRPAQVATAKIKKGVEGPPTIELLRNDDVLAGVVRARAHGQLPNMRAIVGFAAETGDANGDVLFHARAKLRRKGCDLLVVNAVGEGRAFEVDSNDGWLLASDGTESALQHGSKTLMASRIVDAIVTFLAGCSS
UniProt Q8IDJ8, 1-583: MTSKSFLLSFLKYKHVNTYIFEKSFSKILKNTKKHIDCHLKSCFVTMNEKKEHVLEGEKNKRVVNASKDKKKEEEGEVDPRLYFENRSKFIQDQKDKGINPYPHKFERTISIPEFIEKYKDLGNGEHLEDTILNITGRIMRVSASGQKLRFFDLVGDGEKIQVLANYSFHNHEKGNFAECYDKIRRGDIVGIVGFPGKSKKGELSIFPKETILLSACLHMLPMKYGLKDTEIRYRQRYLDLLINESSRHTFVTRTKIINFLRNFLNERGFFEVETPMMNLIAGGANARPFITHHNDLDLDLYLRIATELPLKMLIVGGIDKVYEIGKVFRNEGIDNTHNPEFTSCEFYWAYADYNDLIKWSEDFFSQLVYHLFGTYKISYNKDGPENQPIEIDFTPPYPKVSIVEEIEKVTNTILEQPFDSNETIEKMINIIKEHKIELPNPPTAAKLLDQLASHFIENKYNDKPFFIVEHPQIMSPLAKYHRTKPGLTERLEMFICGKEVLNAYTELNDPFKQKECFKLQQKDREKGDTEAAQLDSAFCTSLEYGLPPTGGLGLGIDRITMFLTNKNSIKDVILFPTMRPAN

Source: ChEMBL document CHEMBL3988442, “University of Dundee, Small-Polar-MMV Screening Library” (2021).

Each number is a percent effect as filed.
The record does not define 0% and 100%; most values in the screen are far below 50% and negative numbers occur (in some assays of this library far below -100).
This is an unselected part of the compounds tested.

A: 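Polyketide synthase Pks13, Mycobacterium tuberculosis (UniProt I6X8D2). Enzyme assay of the thioesterase domain of polyketide synthase 13; the read-out is not stated. Compounds at 30 µM. Higher reads as stronger inhibition (inferred from which compounds were picked for retests). Size under these conditions: about 67,000 compounds, about 300 of them at 50% or above in at least one test.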
B: 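Tryptophan-tRNA ligase, Mycobacterium tuberculosis (UniProt P9WFT3). Enzyme assay of tryptophanyl-tRNA synthetase; the read-out is not stated. Compounds at 10 µM. Direction is not recorded; retested compounds ran higher, which suggests that high means inhibition. About 65,000 compounds were tested under these conditions; 0.098% (about 64) showed 50% or more at least once.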
C: 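Coenzyme A biosynthesis protein CoaBC, Mycobacterium tuberculosis (UniProt P9WNZ1). Enzyme assay of CoaBC with a phosphate dye (Biomol Green) read at 650 nm. Concentration: 30 µM. Direction is inferred from only a few compounds that gave an IC50; most scored high, so higher reads as stronger inhibition. Most strong results did not repeat in a second test. Size under these conditions: about 67,000 compounds, about 40 of them at 50% or above in at least one test.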
D: 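Lysine-tRNA ligase, Plasmodium falciparum 3D7 (UniProt Q8IDJ8). Enzyme assay of the cytosolic lysyl-tRNA synthetase in 384-well plates, read by luminescence. Tested at 30 µM. Higher reads as stronger inhibition, judged from the few compounds that gave an IC50. About 69,000 compounds were tested under these conditions; 0.071% (about 49) showed 50% or more at least once.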

Result for O=C(c1cc2c([nH]c1=O)CCC2)N1CCCC1c1cccnc1 (centres undefined) was A: 16.79%; B: 12.51%; C: 7.46%; D: -6.645%. CC1(C)CC2(CCO1)NC(=O)c1cc(Br)ccc1-n1nnnc12 (centres undefined) gave A: -6.267%; B: -1.117%; C: 4.206%; D: 2.63%. With Cc1ccc2c(c1)CCC21CCN(CCO)CC1 the screen gave A: -31.06%; B: 2.278%; C: -5.537%; D: 2.04%. With Nc1nc(CCC(=O)N2CCOC(CC3CCCCC3)C2)cs1 (centres undefined) the screen gave A: -0.502%; B: 1.253%; C: -2.632%; D: 0.9718%. N#Cc1cccc(N2CCOCC3(CCCN(C(=O)NC4CC4)C3)C2)c1 (centres undefined) read A: -28.13%; B: 1.622%; C: 3.75%; D: 4.427%. For Cn1cnc2c(-c3cccnc3)nc(C3CCN(S(C)(=O)=O)CC3)cc21 the result was A: -5.413%; B: -0.7359%; C: 5.911%; D: 2.965%. For Cc1ccc(CN2CCC3(C2)C(=O)N(CC2CC2)c2ccccc23)s1 (centres undefined) the result was A: -11.99%; B: -0.6785%; C: 6.719%; D: 0.5253%.

Cc1nnc(CN(C)CC2(O)CCCN(CCC3CCCCC3)C2=O)o1 (centres undefined) gave A: -3.443%; B: -4.755%; C: -0.861%; D: 2.058%. For Cc1cc(S(=O)(=O)NC(C)(C)CN)c(F)cc1F the result was A: -6.557%; B: 1.728%; C: 1.214%; D: -2.981%. CNC(=O)[C@@]12CCO[C@@H]1CCN(S(=O)(=O)c1ccccc1)C2 read A: -32.12%; B: 1.744%; C: 2.101%; D: 3.806%. For Cc1c[nH]nc1C1CCCN1Cc1ncc[nH]1 (centres undefined) the result was A: -2.469%; B: -1.903%; C: -2.913%; D: -1.451%. O=C(Nc1cccnc1)[C@@H]1COC[C@H]2CN(C3CCCC3)C[C@H]21 gave A: -9.556%; B: 3.856%; C: 4.738%; D: 1.449%. CC(NC(=O)c1cccs1)C(=O)NCc1ccccn1 (centres undefined) gave A: -17.97%; B: -6.879%; C: 15%; D: 2.798%. With CS(=O)(=O)NCc1ccc(NC(=O)CC2=CCCCC2)cc1 the screen gave A: 9.597%; B: 0.4996%; C: 3.419%; D: 4.362%.

With O=C(CCNc1ncccn1)NCc1ccc(Br)s1 the screen gave A: 3.515%; B: 3.423%; C: 8.448%; D: 3.31%. For CCc1ccc(-c2ncc3c(n2)N(C)CCN(CCN(C)C)C3=O)cc1 the result was A: 30.11%; C: 6.386%; D: 2.729%. CCOc1ccc(S(=O)(=O)NCCc2ccc(N(C)C)cc2)cc1C read A: 1.215%; B: -8.131%; C: -0.6342%; D: 9.02%. With O=C(c1cccnc1-n1cncn1)N1CCc2ccccc2C1 the screen gave A: -16.14%; B: -1.316%; C: 9.168%; D: -0.3469%. Result for COCC(=O)NC(C)c1sc(-c2ccccc2F)nc1C (centres undefined) was A: -26.57%; B: -1.135%; C: 5.804%; D: -0.5201%. Cc1ccc(CN2CCc3[nH]nc(C(=O)N(C)C)c3C2)o1 gave A: -30.27%; B: 7.195%; C: 1.781%; D: 2.409%. Result for O=C1NCC[C@]12CN(Cc1ccsc1)C[C@H]2c1ccccc1 was A: -40.26%; B: -6.711%; C: 5.882%; D: 6.437%.

Result for c1cncc(CN2CCCn3nnc(CN4CCCC4)c3C2)c1 was A: 10.37%; B: 1.285%; C: 3.457%; D: 0.1188%.